The values that follow come from the supplement of paper PMC10849652.

Chains of the proteins cited; added tags and fusions are not shown. Lines headed by an entry give the natural chain unless they say otherwise; changes in a name come on top.
UniProt P61968: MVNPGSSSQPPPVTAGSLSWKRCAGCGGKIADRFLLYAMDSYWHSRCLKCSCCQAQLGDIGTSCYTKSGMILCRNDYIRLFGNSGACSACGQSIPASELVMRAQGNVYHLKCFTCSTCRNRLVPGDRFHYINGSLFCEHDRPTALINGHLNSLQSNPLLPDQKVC
UniProt Q99732: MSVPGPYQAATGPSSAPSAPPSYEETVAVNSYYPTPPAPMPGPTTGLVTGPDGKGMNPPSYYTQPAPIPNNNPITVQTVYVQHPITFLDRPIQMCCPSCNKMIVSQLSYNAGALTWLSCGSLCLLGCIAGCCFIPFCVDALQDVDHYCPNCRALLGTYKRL
UniProt Q52LA3: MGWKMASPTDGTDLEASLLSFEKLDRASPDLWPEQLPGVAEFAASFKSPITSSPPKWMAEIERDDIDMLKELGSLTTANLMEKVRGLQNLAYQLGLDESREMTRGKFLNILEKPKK
UniProt P23490: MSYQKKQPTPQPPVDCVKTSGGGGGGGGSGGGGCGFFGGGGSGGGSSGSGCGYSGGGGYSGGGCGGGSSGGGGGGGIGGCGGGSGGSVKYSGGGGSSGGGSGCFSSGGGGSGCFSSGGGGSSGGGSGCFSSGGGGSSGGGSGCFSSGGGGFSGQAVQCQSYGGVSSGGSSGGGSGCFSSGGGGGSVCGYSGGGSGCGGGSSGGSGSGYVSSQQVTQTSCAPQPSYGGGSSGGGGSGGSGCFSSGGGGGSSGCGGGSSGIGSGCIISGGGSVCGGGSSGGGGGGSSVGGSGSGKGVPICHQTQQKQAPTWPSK
UniProt Q7L5N7: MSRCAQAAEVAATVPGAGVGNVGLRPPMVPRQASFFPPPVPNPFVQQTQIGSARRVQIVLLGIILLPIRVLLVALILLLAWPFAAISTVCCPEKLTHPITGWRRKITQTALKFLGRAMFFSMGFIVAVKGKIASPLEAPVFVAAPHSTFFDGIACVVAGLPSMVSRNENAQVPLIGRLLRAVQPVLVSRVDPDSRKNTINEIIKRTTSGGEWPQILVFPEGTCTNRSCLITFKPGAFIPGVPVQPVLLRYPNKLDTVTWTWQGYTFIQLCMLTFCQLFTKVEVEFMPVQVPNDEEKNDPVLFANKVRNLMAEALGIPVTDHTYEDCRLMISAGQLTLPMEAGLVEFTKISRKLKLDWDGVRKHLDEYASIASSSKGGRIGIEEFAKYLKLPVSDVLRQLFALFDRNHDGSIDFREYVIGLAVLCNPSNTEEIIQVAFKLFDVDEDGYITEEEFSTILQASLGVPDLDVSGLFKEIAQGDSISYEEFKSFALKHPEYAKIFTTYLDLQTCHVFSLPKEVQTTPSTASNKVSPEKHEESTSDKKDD
UniProt Q7Z4F1: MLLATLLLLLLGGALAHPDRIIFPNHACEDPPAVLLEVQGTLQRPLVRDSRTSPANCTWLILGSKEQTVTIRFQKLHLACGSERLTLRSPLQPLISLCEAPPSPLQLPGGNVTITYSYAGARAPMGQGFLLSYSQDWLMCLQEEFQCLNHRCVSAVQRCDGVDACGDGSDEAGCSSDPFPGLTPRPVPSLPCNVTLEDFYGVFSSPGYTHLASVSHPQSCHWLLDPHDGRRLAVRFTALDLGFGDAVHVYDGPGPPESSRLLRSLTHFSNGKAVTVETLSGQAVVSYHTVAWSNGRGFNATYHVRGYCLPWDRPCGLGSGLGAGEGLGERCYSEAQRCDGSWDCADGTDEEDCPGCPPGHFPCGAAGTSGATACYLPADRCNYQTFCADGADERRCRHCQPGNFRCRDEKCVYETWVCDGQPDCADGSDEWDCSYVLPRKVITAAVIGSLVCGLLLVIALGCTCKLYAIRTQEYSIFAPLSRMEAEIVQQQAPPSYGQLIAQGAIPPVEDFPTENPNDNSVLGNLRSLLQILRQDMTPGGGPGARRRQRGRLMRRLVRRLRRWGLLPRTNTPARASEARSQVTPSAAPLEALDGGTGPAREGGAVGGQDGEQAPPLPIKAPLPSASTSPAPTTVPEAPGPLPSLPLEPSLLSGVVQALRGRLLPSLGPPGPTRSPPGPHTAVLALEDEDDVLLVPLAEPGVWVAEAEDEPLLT
UniProt Q9BU23: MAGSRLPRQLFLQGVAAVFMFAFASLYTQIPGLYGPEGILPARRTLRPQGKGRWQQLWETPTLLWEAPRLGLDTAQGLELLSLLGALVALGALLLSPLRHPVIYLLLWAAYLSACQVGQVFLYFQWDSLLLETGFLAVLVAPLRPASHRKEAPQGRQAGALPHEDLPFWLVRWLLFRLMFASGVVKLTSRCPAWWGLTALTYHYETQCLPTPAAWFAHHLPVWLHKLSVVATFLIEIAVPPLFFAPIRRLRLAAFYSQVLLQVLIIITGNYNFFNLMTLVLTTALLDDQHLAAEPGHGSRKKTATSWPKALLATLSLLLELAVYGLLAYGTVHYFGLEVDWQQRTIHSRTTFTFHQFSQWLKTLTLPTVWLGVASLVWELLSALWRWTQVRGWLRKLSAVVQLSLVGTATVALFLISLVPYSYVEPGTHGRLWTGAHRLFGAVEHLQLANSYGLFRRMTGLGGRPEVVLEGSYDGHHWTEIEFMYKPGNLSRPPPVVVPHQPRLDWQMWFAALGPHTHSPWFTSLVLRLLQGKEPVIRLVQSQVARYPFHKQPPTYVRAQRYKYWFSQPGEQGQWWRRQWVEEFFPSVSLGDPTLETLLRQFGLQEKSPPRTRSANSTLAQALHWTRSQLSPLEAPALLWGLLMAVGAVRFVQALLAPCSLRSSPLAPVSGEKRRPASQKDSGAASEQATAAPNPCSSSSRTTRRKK
UniProt Q8WVP7: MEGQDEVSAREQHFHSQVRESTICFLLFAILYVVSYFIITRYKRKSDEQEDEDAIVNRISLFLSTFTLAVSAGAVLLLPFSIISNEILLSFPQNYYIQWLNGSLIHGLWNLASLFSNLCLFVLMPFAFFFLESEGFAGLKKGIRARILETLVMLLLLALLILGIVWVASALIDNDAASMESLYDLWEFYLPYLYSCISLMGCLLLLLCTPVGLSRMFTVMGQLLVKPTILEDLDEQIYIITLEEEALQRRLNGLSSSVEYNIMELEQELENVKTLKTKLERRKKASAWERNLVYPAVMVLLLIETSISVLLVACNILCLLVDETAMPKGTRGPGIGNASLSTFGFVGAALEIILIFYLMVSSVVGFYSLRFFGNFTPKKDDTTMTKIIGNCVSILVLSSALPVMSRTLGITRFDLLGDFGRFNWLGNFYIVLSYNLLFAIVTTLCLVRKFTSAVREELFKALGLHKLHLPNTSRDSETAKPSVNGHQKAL
UniProt Q8N448: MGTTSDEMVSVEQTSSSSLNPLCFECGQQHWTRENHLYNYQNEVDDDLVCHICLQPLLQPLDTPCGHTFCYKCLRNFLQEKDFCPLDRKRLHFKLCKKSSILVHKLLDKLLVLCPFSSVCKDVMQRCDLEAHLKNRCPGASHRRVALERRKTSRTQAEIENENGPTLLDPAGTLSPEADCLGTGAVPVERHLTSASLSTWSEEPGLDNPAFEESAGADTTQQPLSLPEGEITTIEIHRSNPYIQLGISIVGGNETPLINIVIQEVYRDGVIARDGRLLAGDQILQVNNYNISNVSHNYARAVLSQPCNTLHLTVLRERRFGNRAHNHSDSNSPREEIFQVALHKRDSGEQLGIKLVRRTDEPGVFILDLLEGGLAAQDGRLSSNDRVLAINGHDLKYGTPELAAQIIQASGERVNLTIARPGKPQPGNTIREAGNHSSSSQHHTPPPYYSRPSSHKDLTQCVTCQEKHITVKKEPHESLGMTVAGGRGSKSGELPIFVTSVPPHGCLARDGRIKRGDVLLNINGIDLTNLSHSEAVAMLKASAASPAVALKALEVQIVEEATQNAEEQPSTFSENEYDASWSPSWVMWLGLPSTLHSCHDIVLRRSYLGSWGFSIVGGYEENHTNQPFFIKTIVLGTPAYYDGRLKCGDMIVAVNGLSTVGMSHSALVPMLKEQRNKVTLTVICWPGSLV
UniProt Q9BT23: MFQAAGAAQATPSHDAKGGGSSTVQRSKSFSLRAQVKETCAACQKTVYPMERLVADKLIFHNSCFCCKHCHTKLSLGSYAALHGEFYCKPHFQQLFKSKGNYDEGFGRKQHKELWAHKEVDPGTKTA
UniProt P02750: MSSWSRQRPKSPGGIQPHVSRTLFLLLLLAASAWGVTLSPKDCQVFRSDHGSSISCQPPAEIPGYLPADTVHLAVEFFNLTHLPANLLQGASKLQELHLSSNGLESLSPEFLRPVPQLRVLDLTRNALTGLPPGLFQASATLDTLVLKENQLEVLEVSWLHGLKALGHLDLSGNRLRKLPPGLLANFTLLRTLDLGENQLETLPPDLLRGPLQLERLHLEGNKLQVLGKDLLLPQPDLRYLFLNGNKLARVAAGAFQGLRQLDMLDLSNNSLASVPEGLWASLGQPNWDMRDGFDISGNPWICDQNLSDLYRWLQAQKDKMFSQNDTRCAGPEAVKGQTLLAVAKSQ
UniProt Q6ZUX7: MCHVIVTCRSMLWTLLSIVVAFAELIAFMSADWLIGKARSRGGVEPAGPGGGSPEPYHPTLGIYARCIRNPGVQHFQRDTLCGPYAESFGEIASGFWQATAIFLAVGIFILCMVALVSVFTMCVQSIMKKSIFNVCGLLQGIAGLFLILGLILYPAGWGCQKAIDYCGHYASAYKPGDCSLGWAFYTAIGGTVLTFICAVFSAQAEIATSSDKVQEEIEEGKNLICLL
UniProt Q5SW96: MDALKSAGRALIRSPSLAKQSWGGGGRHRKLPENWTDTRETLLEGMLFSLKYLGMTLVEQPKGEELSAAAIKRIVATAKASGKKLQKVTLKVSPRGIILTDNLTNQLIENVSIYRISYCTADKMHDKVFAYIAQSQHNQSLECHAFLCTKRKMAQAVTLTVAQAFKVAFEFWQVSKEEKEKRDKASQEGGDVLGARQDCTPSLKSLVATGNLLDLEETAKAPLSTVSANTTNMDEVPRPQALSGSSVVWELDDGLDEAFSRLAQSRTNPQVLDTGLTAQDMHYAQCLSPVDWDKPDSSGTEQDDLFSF
UniProt Q1L5Z9: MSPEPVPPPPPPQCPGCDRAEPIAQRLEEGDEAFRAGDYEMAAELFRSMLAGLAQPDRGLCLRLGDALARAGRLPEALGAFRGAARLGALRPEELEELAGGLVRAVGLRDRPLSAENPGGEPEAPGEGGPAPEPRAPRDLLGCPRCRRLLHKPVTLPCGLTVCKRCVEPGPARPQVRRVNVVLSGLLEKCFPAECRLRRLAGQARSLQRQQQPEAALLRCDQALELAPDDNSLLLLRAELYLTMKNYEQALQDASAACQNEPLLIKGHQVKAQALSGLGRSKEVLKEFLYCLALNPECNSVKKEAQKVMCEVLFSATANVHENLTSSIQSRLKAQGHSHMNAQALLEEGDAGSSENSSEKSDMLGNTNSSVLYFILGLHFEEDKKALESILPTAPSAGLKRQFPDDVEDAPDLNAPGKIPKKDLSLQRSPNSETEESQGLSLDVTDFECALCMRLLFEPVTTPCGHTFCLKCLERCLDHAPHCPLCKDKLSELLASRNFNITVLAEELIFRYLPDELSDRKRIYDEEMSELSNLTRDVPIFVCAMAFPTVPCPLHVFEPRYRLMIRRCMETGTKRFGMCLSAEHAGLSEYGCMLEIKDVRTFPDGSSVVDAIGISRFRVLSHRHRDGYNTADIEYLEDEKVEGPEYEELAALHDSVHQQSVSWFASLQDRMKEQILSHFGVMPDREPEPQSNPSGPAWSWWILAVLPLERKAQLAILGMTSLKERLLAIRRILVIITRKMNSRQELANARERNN
UniProt P83369: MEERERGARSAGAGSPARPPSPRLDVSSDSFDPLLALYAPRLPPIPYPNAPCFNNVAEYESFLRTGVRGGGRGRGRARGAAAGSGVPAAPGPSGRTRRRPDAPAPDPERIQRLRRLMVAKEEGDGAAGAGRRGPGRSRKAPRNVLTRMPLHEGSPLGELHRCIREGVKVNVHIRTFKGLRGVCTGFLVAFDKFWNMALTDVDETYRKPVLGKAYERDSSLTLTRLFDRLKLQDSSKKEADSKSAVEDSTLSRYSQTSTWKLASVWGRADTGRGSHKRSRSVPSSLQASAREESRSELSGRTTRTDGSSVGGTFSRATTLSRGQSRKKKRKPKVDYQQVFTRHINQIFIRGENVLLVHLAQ
UniProt Q9Y546: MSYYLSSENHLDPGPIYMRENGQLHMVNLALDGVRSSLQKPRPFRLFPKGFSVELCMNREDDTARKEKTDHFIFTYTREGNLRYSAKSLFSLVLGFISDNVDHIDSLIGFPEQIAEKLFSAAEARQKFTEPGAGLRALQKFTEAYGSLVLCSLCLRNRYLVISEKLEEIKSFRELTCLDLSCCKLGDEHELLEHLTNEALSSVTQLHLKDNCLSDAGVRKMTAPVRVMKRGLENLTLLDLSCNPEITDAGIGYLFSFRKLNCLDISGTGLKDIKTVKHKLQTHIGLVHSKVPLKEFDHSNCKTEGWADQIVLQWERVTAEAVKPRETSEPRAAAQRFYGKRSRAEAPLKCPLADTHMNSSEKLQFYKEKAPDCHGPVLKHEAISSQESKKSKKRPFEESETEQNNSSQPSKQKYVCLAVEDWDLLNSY
UniProt Q53QV2: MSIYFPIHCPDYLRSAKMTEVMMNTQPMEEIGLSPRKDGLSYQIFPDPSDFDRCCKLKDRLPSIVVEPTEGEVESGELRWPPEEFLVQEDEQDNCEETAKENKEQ

Some of the results follow.

Compound in the first test: CS(=O)(=O)CCNCc1ccc(-c2ccc3ncnc(Nc4ccc(OCc5cccc(F)c5)c(Cl)c4)c3c2)o1 [lapatinib]
The test can be described thus: log2 fold change, soluble protein after heating vs DMSO (PISA); higher = thermal stabilisation; K562 lysate, 10 uM; active = over 0.2 and 3.5 SD of the protein, either way, in both replicates (recomputed). In a few lines: (§1)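 Thermal stability, expressed as log-two fold change relative to solvent controls, is given from duplicates. Crude K562 extract in PBS pH 7.4 with 1 mM MgCl2, at 1 mg/mL protein, was treated with 10 μM compound for 30 min and heated in aliquots for 3 min across 48°C-58°C. After pooling, adjustment to 0.5% NP-40 at 4°C and centrifugation at 21,000xg for 90 min, supernatant protein was measured by TMTpro 16plex LC-MS/MS with channel sums equalised.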
Consider LMO4 (UniProt P61968), for which the log2 fold change was inactive: 0.038.

As to LRRIQ1 (UniProt Q96JM4), the log2 fold change is inactive: 0.04.

Take LITAF (UniProt Q99732): the log2 fold change is inactive: -0.002.

For LRRCC1 (UniProt Q9C099), the log2 fold change was inactive: -0.055.

Turning to LIN52 (UniProt Q52LA3), the log2 fold change was inactive: 0.255.

For the target LRRC25 (UniProt Q8N386), the log2 fold change was inactive: -0.123.

In the case of LRP1 (UniProt Q07954), the log2 fold change is inactive: -0.047.

Regarding LDHA isoform 4 (UniProt P00338), the log2 fold change is inactive: -0.325.

Compound in the next test: CS(=O)(=O)N1CCN(Cc2cc3nc(-c4cccc5[nH]ncc45)nc(N4CCOCC4)c3s2)CC1 [pictilisib]
Described as above. In a few lines:
as §1
For the target LOR (UniProt P23490), the log2 fold change was inactive: 0.445.

Take LPCAT2 (UniProt Q7L5N7): the log2 fold change is inactive: -0.046.

As to LRP10 (UniProt Q7Z4F1), the log2 fold change was inactive: -0.006.

For LMF2 (UniProt Q9BU23), the log2 fold change is inactive: -0.022.

As to LMBR1 isoform 3 (UniProt Q8WVP7), the log2 fold change is inactive: -0.001.

Consider LIN28A (UniProt Q9H9Z2), for which the log2 fold change is inactive: -0.037.

Regarding LNX2 (UniProt Q8N448), the log2 fold change was inactive: 0.062.

Turning to LDHD (UniProt Q86WU2), the log2 fold change was inactive: -0.171.

Take LIMD2 (UniProt Q9BT23): the log2 fold change is inactive: 0.057.

LRP6 (UniProt O75581): the log2 fold change is inactive: 0.104.

Take LRG1 (UniProt P02750): the log2 fold change was inactive: -0.173.

LHFPL2 (UniProt Q6ZUX7): the log2 fold change is inactive: -0.148.

As to LDLRAP1 (UniProt Q5SW96), the log2 fold change was inactive: 0.198.

Compound in the next test: C[C@@H](Oc1cc(-c2cnn(C3CCNCC3)c2)cnc1N)c1c(Cl)ccc(F)c1Cl [crizotinib]
The test is described as above. In a few lines:
as §1
With LMO4 (UniProt P61968), the log2 fold change was inactive: -0.121.

Consider LONRF2 (UniProt Q1L5Z9), for which the log2 fold change is inactive: -0.001.

Consider LBHD1 (UniProt Q9BQE6), for which the log2 fold change is inactive: -0.006.

For LRRIQ1 (UniProt Q96JM4), the log2 fold change is inactive: -0.278.

With LPCAT2 (UniProt Q7L5N7), the log2 fold change was inactive: 0.419.

Consider LMF2 (UniProt Q9BU23), for which the log2 fold change was inactive: 0.014.

In the case of LMBR1 isoform 3 (UniProt Q8WVP7), the log2 fold change was inactive: 0.006.

In the case of LNX1 (UniProt Q8TBB1), the log2 fold change is inactive: 0.026.

As for LINC00526 (UniProt Q96FQ7), the log2 fold change was inactive: 0.

Take LITAF (UniProt Q99732): the log2 fold change was inactive: -0.023.

As to LRRC8E (UniProt Q6NSJ5), the log2 fold change was inactive: 0.022.

On to LRRCC1 (UniProt Q9C099), for which the log2 fold change is inactive: 0.034.

For the target LIMD2 (UniProt Q9BT23), the log2 fold change was inactive: -0.034.

Take LIN52 (UniProt Q52LA3): the log2 fold change is inactive: 0.089.

In the case of LRP6 (UniProt O75581), the log2 fold change was inactive: 0.033.

LCA5 (UniProt Q86VQ0): the log2 fold change is inactive: 0.064.

As to LRG1 (UniProt P02750), the log2 fold change was inactive: -0.105.

In the case of LHFPL2 (UniProt Q6ZUX7), the log2 fold change was inactive: -0.068.

For the target LSR isoform 3 (UniProt Q86X29), the log2 fold change was inactive: -0.056.

As for LSM11 (UniProt P83369), the log2 fold change is inactive: 0.025.

As for LRRC25 (UniProt Q8N386), the log2 fold change is inactive: -0.127.

Take LEF1 (UniProt Q9UJU2): the log2 fold change is inactive: -0.023.

As to LRRC42 (UniProt Q9Y546), the log2 fold change is inactive: -0.011.

Regarding LRP1 (UniProt Q07954), the log2 fold change was inactive: -0.488.

On to LRRC9 (UniProt Q6ZRR7), for which the log2 fold change was inactive: -0.065.

With LDLRAP1 (UniProt Q5SW96), the log2 fold change is inactive: -0.065.

Compound in a further test: C[C@H](C1=CC=C(C=C1)C(=O)NC2=C3C=CNC3=NC=C2)N
The test is described as above. The method in brief:
as §1
For LBH (UniProt Q53QV2), the log2 fold change is inactive: -0.019.

Regarding LONRF2 (UniProt Q1L5Z9), the log2 fold change is inactive: 0.03.

For the target LCORL (UniProt Q8N3X6), the log2 fold change was inactive: -0.04.

Turning to LRP10 (UniProt Q7Z4F1), the log2 fold change was inactive: 0.072.

For LMF2 (UniProt Q9BU23), the log2 fold change is inactive: -0.208.

For LMBR1 isoform 3 (UniProt Q8WVP7), the log2 fold change was inactive: -0.039.

Turning to LIN28A (UniProt Q9H9Z2), the log2 fold change was inactive: 0.022.

For the target LRRC8E (UniProt Q6NSJ5), the log2 fold change was inactive: -0.033.

Consider LATS1 (UniProt O95835), for which the log2 fold change was inactive: 0.215.

LNX2 (UniProt Q8N448): the log2 fold change was inactive: -0.031.

For LONP2 (UniProt Q86WA8), the log2 fold change is inactive: -0.099.

On to LDHD (UniProt Q86WU2), for which the log2 fold change is inactive: 0.015.

On to LRG1 (UniProt P02750), for which the log2 fold change was inactive: -0.002.

With LPGAT1 (UniProt Q92604), the log2 fold change is inactive: 0.034.

Regarding LSR isoform 3 (UniProt Q86X29), the log2 fold change was inactive: -0.011.

LSM11 (UniProt P83369): the log2 fold change is inactive: -0.123.

Turning to LEF1 (UniProt Q9UJU2), the log2 fold change was inactive: 0.22.

With LRRC42 (UniProt Q9Y546), the log2 fold change is inactive: 0.044.

Take LDHA isoform 4 (UniProt P00338): the log2 fold change was inactive: -0.4.

With LRRC9 (UniProt Q6ZRR7), the log2 fold change is inactive: 0.032.

Regarding LDLRAP1 (UniProt Q5SW96), the log2 fold change was inactive: 0.045.

Compound in a further test: C[C@H](Nc1ncnc2nc[nH]c12)c1cc2cccc(Cl)c2c(=O)n1-c1ccccc1 [duvelisib]
Described as above. In a few lines:
as §1
Consider LMO4 (UniProt P61968), for which the log2 fold change was inactive: -0.122.

For the target LBH (UniProt Q53QV2), the log2 fold change is inactive: 0.037.

As to LONRF2 (UniProt Q1L5Z9), the log2 fold change was inactive: -0.002.

Take LPCAT2 (UniProt Q7L5N7): the log2 fold change is inactive: -0.031.

As for LRP10 (UniProt Q7Z4F1), the log2 fold change is inactive: -0.008.

On to LRP5 (UniProt O75197), for which the log2 fold change is inactive: -0.04.

On to LMF2 (UniProt Q9BU23), for which the log2 fold change is inactive: -0.024.

For the target LNX1 (UniProt Q8TBB1), the log2 fold change is inactive: -0.139.

Regarding LITAF (UniProt Q99732), the log2 fold change was inactive: 0.018.

On to LRRCC1 (UniProt Q9C099), for which the log2 fold change is inactive: 0.036.

Consider LATS1 (UniProt O95835), for which the log2 fold change is inactive: -0.071.

As to LNX2 (UniProt Q8N448), the log2 fold change is inactive: -0.277.

As to LIN52 (UniProt Q52LA3), the log2 fold change was inactive: 0.021.

Regarding LRP6 (UniProt O75581), the log2 fold change was inactive: 0.052.

As for LPGAT1 (UniProt Q92604), the log2 fold change is inactive: -0.067.

Regarding LSM11 (UniProt P83369), the log2 fold change was inactive: 0.009.

Take LRRC42 (UniProt Q9Y546): the log2 fold change was inactive: -0.004.

Take LRRC45 (UniProt Q96CN5): the log2 fold change is inactive: 0.112.

LDLRAP1 (UniProt Q5SW96): the log2 fold change was inactive: -0.021.
